According to patent publication US10112881B2, “Skin lightening compounds” (WiSys Technology Foundation, Inc., priority 2014, dated 2018):
Some of these results come from one statement about several compounds together. For at least one compound, name, drawing or mass did not settle the structure.

Test system: zebrafish embryos
Assay: Pigment recovery after chemical withdrawal (Protocol 3)
Format: in vivo
Conditions: treated 24-72 hpf, 24 hours after wash
Description: FIG. 4 are photographs of the pigment recovery after chemical withdrawal. Zebrafish embryos were treated with skin lightening compounds from 24-72 hpf followed by several washes to remove the compounds then incubated in […]. Twenty four hours after wash, the embryos were imaged.
Comparison of Skin-Lightening Compounds
It has been reported that melanin usually reappears after the withdrawal of skin lightening products. We studied this question by treating fish embryos from 24-72 hpf, according to Protocol 3, to create strong pigment reduction then wash off the compounds and track the pigment recovery. […] A drug with the ability to permanently remove or inhibit pigment might pose a concern of causing vitiligo.

| SMILES | pigment recovery after chemical withdrawal [%] |
| --- | --- |
| NC(=S)Nc1ccccc1 [PTU, phenylthiourea] | ≤ 50 |
| Oc1ccc(C2=Cc3ccc(O)cc3OC2)cc1 [phenoxidiol, phenoxidiol/haginin] | ≤ 50 |
